Laboratory results: article PMC12251889
No constants are given. Whether binding was seen depends on the method and setting. Binding seen in cells or lysates may run through a third protein. Binding can be weak; no strength is given. Tags and fused reporters may be left off the sequences shown.

The chains behind the UniProt entries cited, without tags or fusion partners. Where a name states a change or a piece, a line headed by the entry shows the natural chain unless it says otherwise.
UniProt Q43011: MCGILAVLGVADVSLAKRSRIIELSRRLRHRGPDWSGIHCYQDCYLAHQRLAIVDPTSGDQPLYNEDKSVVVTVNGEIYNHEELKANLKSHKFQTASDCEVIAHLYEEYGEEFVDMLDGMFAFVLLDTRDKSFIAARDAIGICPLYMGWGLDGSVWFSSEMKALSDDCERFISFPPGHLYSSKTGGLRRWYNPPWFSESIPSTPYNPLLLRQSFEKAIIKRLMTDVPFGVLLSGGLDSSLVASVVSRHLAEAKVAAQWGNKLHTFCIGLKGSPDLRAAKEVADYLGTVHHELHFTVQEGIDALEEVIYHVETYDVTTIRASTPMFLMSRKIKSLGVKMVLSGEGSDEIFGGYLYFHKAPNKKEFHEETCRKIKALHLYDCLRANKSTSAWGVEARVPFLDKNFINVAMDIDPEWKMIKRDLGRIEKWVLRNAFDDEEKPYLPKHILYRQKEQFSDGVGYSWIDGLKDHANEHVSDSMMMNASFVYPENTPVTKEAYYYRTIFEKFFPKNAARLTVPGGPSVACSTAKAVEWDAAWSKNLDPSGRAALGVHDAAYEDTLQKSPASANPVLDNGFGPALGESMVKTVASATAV

Experiments:
[1] = molecular target: MBP-OsASN2 fusion protein (rice) (UniProt Q43011); test: pull-down; resin-bound MBP or MBP-OsASN2 mixed with His-OsPPDKB at 4 °C overnight; elution blotted with anti-His and anti-MBP
[2] = molecular target: OsASN2-GFP fusion protein (rice) (UniProt Q43011); test: co-IP; GFP or OsASN2-GFP transiently co-transformed with OsPPDKB-MYC into rice protoplasts; GFP-Trap 12 h after transformation; blots with anti-GFP and anti-MYC

Binder	binding [1]	binding [2]
His-OsPPDKB fusion protein (enzyme, UniProt Q6AVA8 72-947) TTKKRVFHFGKGKSEGNKAMKDLLGGKGANLAEMASIGLSVPPGFTVSTEACQQYQAAGKTLPAGLWEEIVEGLQWVEEYMAARLGDPARPLLLSVRSGAAVSMPGMMDTVLNLGLNDEVAAGLAAKSGDRFAYDSYRRFLDMFGNVVMDIPHALFEEKLEAMKAVKGLHNDTDLTATDLKELVAQYKDVYVEAKGEPFPSDPKKQLQLAVLAVFNSWDSPRAIKYRSINKITGLKGTAVNVQTMVFGNMGNTSGTGVLFTRNPSTGEKKLYGEFLVNAQGEDVVAGIRTPEDLDAMRDHMPEPYEELVENCKILESHYKEMMDIEFTVQENRLWMLQCRTGKRTGKGAVKIAVDMVNEGLVERRTALKMVEPGHLDQLLHPQFENPSGYKDKVIATGLPASPGAAVGQIVFTAEDAEAWHAQGKDVILVRTETSPEDVGGMHAAVGILTARGGMTSHAAVVARGWGKCCVSGCSSVRVNDASKIVVIEDKALHEGEWLSLNGSTGEVIIGKQPLCPPALSGDLETFMSWVDEVRKLKVMANADTPEDATTARQNGAEGIGLCRTEHMFFASDERIKAVRQMIMASSLELRQKALDRLLPYQRSDFEGIFRAMDGLPVTIRLLDPPLHEFLPEGHVEDMVRELCSETGAAQDDVLARVEKLSEVNPMLGFRGCRLGISYPELTEMQARAIFEAAITMTNQGIQVFPEIMVPLVGTPQELGHQVDVIRQIANKVFTDMGKTIGYKVGTMIEIPRAALVADEIAEQAEFFSFGTNDLTQMTFGYSRDDVGKFLPIYLSQGILQHDPFEVLDQRGVGELVKLATERGRKARPNLKVGICGEHGGEPLSVAFFAKAGLDYVSCSPFRVPIARLAAAQVLL	binds	
OsPPDKB-MYC (enzyme, UniProt Q6AVA8 72-947) TTKKRVFHFGKGKSEGNKAMKDLLGGKGANLAEMASIGLSVPPGFTVSTEACQQYQAAGKTLPAGLWEEIVEGLQWVEEYMAARLGDPARPLLLSVRSGAAVSMPGMMDTVLNLGLNDEVAAGLAAKSGDRFAYDSYRRFLDMFGNVVMDIPHALFEEKLEAMKAVKGLHNDTDLTATDLKELVAQYKDVYVEAKGEPFPSDPKKQLQLAVLAVFNSWDSPRAIKYRSINKITGLKGTAVNVQTMVFGNMGNTSGTGVLFTRNPSTGEKKLYGEFLVNAQGEDVVAGIRTPEDLDAMRDHMPEPYEELVENCKILESHYKEMMDIEFTVQENRLWMLQCRTGKRTGKGAVKIAVDMVNEGLVERRTALKMVEPGHLDQLLHPQFENPSGYKDKVIATGLPASPGAAVGQIVFTAEDAEAWHAQGKDVILVRTETSPEDVGGMHAAVGILTARGGMTSHAAVVARGWGKCCVSGCSSVRVNDASKIVVIEDKALHEGEWLSLNGSTGEVIIGKQPLCPPALSGDLETFMSWVDEVRKLKVMANADTPEDATTARQNGAEGIGLCRTEHMFFASDERIKAVRQMIMASSLELRQKALDRLLPYQRSDFEGIFRAMDGLPVTIRLLDPPLHEFLPEGHVEDMVRELCSETGAAQDDVLARVEKLSEVNPMLGFRGCRLGISYPELTEMQARAIFEAAITMTNQGIQVFPEIMVPLVGTPQELGHQVDVIRQIANKVFTDMGKTIGYKVGTMIEIPRAALVADEIAEQAEFFSFGTNDLTQMTFGYSRDDVGKFLPIYLSQGILQHDPFEVLDQRGVGELVKLATERGRKARPNLKVGICGEHGGEPLSVAFFAKAGLDYVSCSPFRVPIARLAAAQVLL		binds
